Taken from: PubChem BioAssay AID1159578 (Peter MacCallum Cancer Centre, 2015)
Aim: 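siRNA pools altering how lymphatic endothelial cells close a scratch wound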 (primary screen). Cells: human lymphatic endothelial cells. Reagent: siRNA pool against human genes, 40 nM. Timing: 48 h after transfection. Read-out: 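Cells stained with dye and imaged after a scratch; covered wound area and nuclei counted, duplicates averaged, migration set against mock wells and turned into a robust z-score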. Reading the numbers: migration robust z-score: higher = faster migration into the scratch; migration relative to mock: higher = more scratch area covered than mock; nuclei per well: higher = more cells in the well. Active means: 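Pools averaging fewer than 3300 nuclei are never called; remaining pools count as changed when migration robust z lies outside -2 to 2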. Calls: active = migration changed; inactive = no migration change, or too few cells.
The deposit covers about 18,000 reagents; below is a random part of them. About 1,030 of all reagents (5.7%) count as active. 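Inactive calls also include pools with fewer than 3300 nuclei, whose migration was not assessed.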 Raw values vary from plate to plate and are shown uncorrected. A number with no mark means an inactive call. Reagent sequences are not shown.

gene | migration robust z-score | migration class with cell-count check | migration relative to mock | nuclei per well, duplicate mean
ADD3 (adducin 3) | -0.72 | migration z between -2 and 2; enough cells | 0.7 | 5898
COL25A1 (collagen type XXV alpha 1 chain) | 0.38 | migration z between -2 and 2; enough cells | 0.88 | 5640
ADGRG4 (adhesion G protein-coupled receptor G4) | 1.4 | migration z between -2 and 2; enough cells | 1.08 | 5997
UQCC4 (ubiquinol-cytochrome c reductase complex assembly factor 4) | -0.52 | migration z between -2 and 2; enough cells | 0.75 | 5158
PDIA2 (protein disulfide isomerase family A member 2) | -0.02 | migration z between -2 and 2; enough cells | 0.8 | 6306
ZNF326 (zinc finger protein 326) | -1.62 | migration z between -2 and 2; enough cells | 0.46 | 4408
KANK4 (KN motif and ankyrin repeat domains 4) | 1.85 | migration z between -2 and 2; enough cells | 1.36 | 6331
MEGF8 (multiple EGF like domains 8) | -0.79 | migration z between -2 and 2; enough cells | 0.68 | 6689
COMMD10 (COMM domain containing 10) | 0.76 | migration z between -2 and 2; enough cells | 1.07 | 5314
CCDC3 (coiled-coil domain containing 3) | 0.34 | migration z between -2 and 2; enough cells | 0.97 | 5634
UBE2L3 (ubiquitin conjugating enzyme E2 L3) | 0.99 | migration z between -2 and 2; enough cells | 0.99 | 5147
CYP51A1 (cytochrome P450 family 51 subfamily A member 1) | -1.12 | migration z between -2 and 2; enough cells | 0.59 | 4804
TRIB1 (tribbles pseudokinase 1) | -1.17 | under 3300 nuclei; migration not judged | 0.58 | 3016
SNTG2 (syntrophin gamma 2) | 0.29 | migration z between -2 and 2; enough cells | 0.97 | 7127
INHBA (inhibin subunit beta A) | 1.19 | migration z between -2 and 2; enough cells | 1.04 | 6288
BTF3L4 (basic transcription factor 3 like 4) | 0.79 | migration z between -2 and 2; enough cells | 1.08 | 6112
ALMS1 (ALMS1 centrosome and basal body associated protein) | -0.74 | migration z between -2 and 2; enough cells | 0.69 | 4933
MSN (moesin) | -0.3 | migration z between -2 and 2; enough cells | 0.8 | 6486
SALL1 (spalt like transcription factor 1) | 0 | migration z between -2 and 2; enough cells | 0.8 | 5668
SSTR5 (somatostatin receptor 5) | -0.88 | migration z between -2 and 2; enough cells | 0.64 | 6026
BPIFB2 (BPI fold containing family B member 2) | -0.7 | migration z between -2 and 2; enough cells | 0.7 | 5734
SORT1 (sortilin 1) | -1.84 | migration z between -2 and 2; enough cells | 0.45 | 3504
MMGT1 (membrane magnesium transporter 1) | -0.95 | migration z between -2 and 2; enough cells | 0.64 | 3872

A few values from the list:
Entry for PDIA2 (protein disulfide isomerase family A member 2) under “migration class with cell-count check”: migration z between -2 and 2; enough cells
Under “migration relative to mock”, ZNF326 (zinc finger protein 326) shows 0.46
Result of MEGF8 (multiple EGF like domains 8) under “migration relative to mock”: 0.68
MSN (moesin), nuclei per well, duplicate mean: 6486
CCDC3 (coiled-coil domain containing 3), nuclei per well, duplicate mean = 5634

Next reagents:
gene | migration robust z-score | migration class with cell-count check | migration relative to mock | nuclei per well, duplicate mean
MED9 (mediator complex subunit 9) | -1.87 | under 3300 nuclei; migration not judged | 0.39 | 2581
ZBTB1 (zinc finger and BTB domain containing 1) | 1.16 | migration z between -2 and 2; enough cells | 1.18 | 5076
OR2L13 (olfactory receptor family 2 subfamily L member 13) | -1.15 | migration z between -2 and 2; enough cells | 0.59 | 5356
CYB5B (cytochrome b5 type B) | -0.6 | migration z between -2 and 2; enough cells | 0.73 | 6385
NQO1 (NAD(P)H quinone dehydrogenase 1) | -1.79 | migration z between -2 and 2; enough cells | 0.46 | 4766
OR1D5 (olfactory receptor family 1 subfamily D member 5) | 0.73 | migration z between -2 and 2; enough cells | 1.07 | 6226
LTBR (lymphotoxin beta receptor) | -0.96 | migration z between -2 and 2; enough cells | 0.62 | 5643
SIRT4 (sirtuin 4) | 0.88 | migration z between -2 and 2; enough cells | 1.12 | 5799
ANAPC15 (anaphase promoting complex subunit 15) | -0.64 | migration z between -2 and 2; enough cells | 0.72 | 6098
SEC22B (SEC22 homolog B, vesicle trafficking protein) | -0.76 | migration z between -2 and 2; enough cells | 0.69 | 5232
SLC6A9 | -0.39 | migration z between -2 and 2; enough cells | 0.73 | 5473
ALKBH5 (alkB homolog 5, RNA demethylase) | -0.08 | migration z between -2 and 2; enough cells | 0.86 | 4698
SLC15A4 | -0.73 | migration z between -2 and 2; enough cells | 0.66 | 5675
CSRP3 (cysteine and glycine rich protein 3) | 1.14 | migration z between -2 and 2; enough cells | 1.18 | 5313
SLC25A14 | -1.45 | migration z between -2 and 2; enough cells | 0.52 | 5754
ATP2A3 | -0.88 | migration z between -2 and 2; enough cells | 0.66 | 5842
